These results are taken from the supplement of paper PMC9938546.

Where a name gives a salt, the structure may show the parent alone. The list shows a part of the results. Baselines shift from plate to plate; read single values as rough.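 HCT116-GFP is a human colorectal cancer cell line that carries a KRAS mutation, is microsatellite-unstable and always makes green fluorescent protein; the immune cells came from healthy donors. Live-cell imaging of the green signal stood in for cancer cell survival, and activated immune cells alone cut survival to about half.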

The test system of this experiment is HCT116-GFP. Briefly: HCT116-GFP viability (GFP intensity) relative to untreated HCT116-GFP monoculture control, co-culture with activated PBMCs; higher = less cancer cell killing. Conditions: culture: co-culture with anti-CD3/IL2 activated PBMCs 1:1; 10 µM; 72 h.
Consider `Clc1ccccc1CN1CCc2sccc2C1` [Ticlopidine hydrochloride], for which the HCT116-GFP viability was found to be 28.4%.
On to `CO[C@@]1(NC(=O)C2SC(=C(C(N)=O)C(=O)O)S2)C(=O)N2C(C(=O)O)=C(CSc3nnnn3C)CS[C@@H]21` (some centres not stated) [Cefotetan], for which the HCT116-GFP viability came to 45.4%.
`CN(C)CCCN1c2ccccc2CCc2ccc(Cl)cc21` [Clomipramine hydrochloride] registered an HCT116-GFP viability of 55.6%.
The compound `Cc1cc(NC(=O)C2=C(O)c3ccccc3S(=O)(=O)N2C)no1` [Isoxicam] yielded an HCT116-GFP viability of 37.2%.
For the compound `Cc1cc(C(C)(C)CC(C)(C)C)ccc1OCCOCC[N+](C)(C)Cc1ccccc1` [Methyl benzethonium chloride], the HCT116-GFP viability was 1.72%.
`C#C[C@]1(OC(C)=O)CC[C@H]2[C@@H]3CCC4=C[C@@H](OC(C)=O)CC[C@@H]4[C@H]3CC[C@@]21C` [Ethynodiol diacetate] registered an HCT116-GFP viability of 52.7%.
Next, `Nc1ccc(S(=O)(=O)Nc2ncccn2)cc1` [Sulfadiazine]: 42.1%; `CO[C@@]1(NC(=O)C(C(=O)O)c2ccc(O)cc2)C(=O)N2C(C(=O)O)=C(CSc3nnnn3C)CO[C@@H]21` (some centres not stated) [Moxalactam disodium salt]: 81.1%.
For the compound `C#C[C@]1(O)CC[C@H]2[C@@H]3CCC4=CC(=O)CC[C@@H]4[C@H]3CC[C@@]21C` [Norethindrone], the HCT116-GFP viability was found to be 34.7%.
Next, `Cc1ccc(N(CC2=NCCN2)c2cccc(O)c2)cc1` [Phentolamine hydrochloride]: 38.9%; `CCc1ccc(CCOc2ccc(CC3SC(=O)NC3=O)cc2)nc1` (configuration not stated) [Pioglitazone]: 54.4%; `CO[C@H]1/C=C/O[C@@]2(C)Oc3c(C)c(O)c4c(O)c(c(/C=N/N5CCN(C)CC5)c(O)c4c3C2=O)NC(=O)/C(C)=C\C=C\[C@H](C)[C@H](O)[C@@H](C)[C@@H](O)[C@@H](C)[C@H](OC(C)=O)[C@@H]1C` [Rifampicin]: 42.8%.
With `Cc1c(Cl)cccc1Nc1ccccc1C(=O)O` [Tolfenamic acid], the HCT116-GFP viability was 38.4%.
The same measure for `CCCSc1ccc2[nH]c(NC(=O)OC)nc2c1` [Albendazole]: 2.01%; for `CC[C@H]1OC(=O)[C@H](C)[C@@H](O[C@H]2C[C@@](C)(OC)[C@@H](O)[C@H](C)O2)[C@H](C)[C@@H](O[C@@H]2O[C@H](C)C[C@H](N(C)C)[C@H]2O)[C@](C)(O)C[C@@H](C)C(=O)[C@H](C)[C@@H](O)[C@]1(C)O` [Erythromycin]: 39.7%; for `c1ccc(CC2=NCCN2)cc1` [Tolazoline hydrochloride]: 57.4%.
Take `OCCN1CCN(CCCN2c3ccccc3Sc3ccc(C(F)(F)F)cc32)CC1` [Fluphenazine dihydrochloride]: the HCT116-GFP viability came to 13.3%.
`CC(C)(Oc1ccc(CCNC(=O)c2ccc(Cl)cc2)cc1)C(=O)O` [Bezafibrate] had an HCT116-GFP viability of 49%.
Next, `O=C(O)CCc1nc(-c2ccccc2)c(-c2ccccc2)o1` [Oxaprozin]: 42.7%; `O=C1c2ccccc2C(=O)C1c1ccccc1` [Phenindione]: 61.3%; `Clc1ccc2c(c1)C(N1CCNCC1)=Nc1ccccc1O2` [Amoxapine]: 38.7%.
Compound `COc1ccc(CC(C)NCC(O)c2ccc(O)c(NC=O)c2)cc1` (configuration not stated) [Formoterol fumarate] came in with an HCT116-GFP viability of 53.1%.
As for `CCOC(=O)N1CCC(=C2c3ccc(Cl)cc3CCc3cccnc32)CC1` [Loratadine], the HCT116-GFP viability was determined as 63.2%.
Consider `COC(=O)[C@H](c1ccccc1Cl)N1CCc2sccc2C1` [Clopidogrel], for which the HCT116-GFP viability was found to be 32.1%.
Next, `C[C@]12CCC(=O)C=C1CC[C@@H]1[C@@H]2C(=O)C[C@@]2(C)[C@H]1CC[C@]2(O)C(=O)CO` [Cortisone]: 33.1%; `COCCCC/C(=N\OCCN)c1ccc(C(F)(F)F)cc1` [Fluvoxamine maleate]: 44.1%; `CC(=O)[C@@]12O[C@](C)(c3ccccc3)O[C@@H]1C[C@H]1[C@@H]3CCC4=CC(=O)CC[C@]4(C)[C@H]3CC[C@@]12C` [Algestone acetophenide]: 39.5%.
`C[C@H](N[C@@H](CCc1ccccc1)C(=O)O)C(=O)N1CCC[C@H]1C(=O)O` [Enalaprilat dihydrate]: the HCT116-GFP viability was 33.5%.
The compound `CN(C)[C@@H]1C(O)=C(C(N)=O)C(=O)[C@@]2(O)C(O)=C3C(=O)c4c(O)cccc4[C@@](C)(O)[C@H]3C[C@@H]12` [Tetracycline hydrochloride] gave an HCT116-GFP viability of 44.5%.
Compound `CS(=O)(=O)c1ccc([C@@H](O)[C@@H](CF)NC(=O)C(Cl)Cl)cc1` [Florfenicol] displayed an HCT116-GFP viability of 69.9%.
`CCN(CC)CCCC(C)Nc1ccnc2cc(Cl)ccc12` (configuration not stated) [Chloroquine diphosphate] yielded an HCT116-GFP viability of 71%.
On to `C=C(CC)C(=O)c1ccc(OCC(=O)O)c(Cl)c1Cl` [Ethacrynic acid], for which the HCT116-GFP viability is 33%.
With `Nc1ccc(S(=O)(=O)NC(=O)c2ccccc2)cc1` [Sulfabenzamide], the HCT116-GFP viability worked out at 73.6%.
As to `CCCCCN(C)CCC(O)(P(=O)(O)O)P(=O)(O)O` [Ibandronate sodium], the HCT116-GFP viability is 61.1%.
`C1N2CN3CN1CN(C2)C3` [Methenamine] registered an HCT116-GFP viability of 54.6%.
Consider `O=C1NCCN1c1ncc([N+](=O)[O-])s1` [Niridazole], for which the HCT116-GFP viability was 63.1%.
Regarding `CC(C)(C)C(=O)OCOC(=O)[C@@H]1N2C(=O)[C@@H](/N=C/N3CCCCCC3)[C@H]2SC1(C)C` [Pivmecillinam hydrochloride], the HCT116-GFP viability came out at 50.3%.
For `CNc1ncnc2c1ncn2[C@@H]1O[C@H](CO)[C@@H](O)[C@H]1O` [N6-methyladenosine], the HCT116-GFP viability stood at 42.9%.
`OCC(O)CN1CCN(c2ccccc2)CC1` (racemic) [Dropropizine (R,S)] had an HCT116-GFP viability of 31.3%.
In turn, `c1ccc2c(c1)CCCC2C1=NCCN1` (configuration not stated) [Tetrahydrozoline hydrochloride] registered an HCT116-GFP viability of 65%.
Next, `C[C@@H](O)[C@H]1C(=O)N2C(C(=O)O)=C(SCCNC=N)C[C@H]12` [Imipenem]: 44.8%; `CC(=O)OCC(=O)NCCCOc1cccc(CN2CCCCC2)c1` [Roxatidine Acetate hydrochloride]: 41.8%.
`CCn1cc(C(=O)O)c(=O)c2cc(F)c(N3CCNCC3)nc21` [Enoxacin] returned an HCT116-GFP viability of 45%.
As to `CCCc1ncc(C[n+]2ccccc2C)c(N)n1` [Amprolium hydrochloride], the HCT116-GFP viability is 42.9%.
`CC(C(=O)O)c1cccc(Oc2ccccc2)c1` (configuration not stated) [Fenoprofen calcium salt dihydrate] displayed an HCT116-GFP viability of 88.6%.
The compound `Oc1ccc(C2CNCCc3c2cc(O)c(O)c3Cl)cc1` (configuration not stated) [Fenoldopam] had an HCT116-GFP viability of 30.6%.
The compound `OC(Cn1cncn1)(Cn1cncn1)c1ccc(F)cc1F` [Fluconazole] came in with an HCT116-GFP viability of 43.5%.
In turn, `CCCOc1cc(N)ccc1C(=O)OCCN(CC)CC` [Propoxycaine hydrochloride] came in with an HCT116-GFP viability of 37.3%.
The same measure for `NCCc1c[nH]cn1` [Histamine dihydrochloride]: 44.8%.
Compound `CC[N+](C)(C)c1cccc(O)c1` [Edrophonium chloride] registered an HCT116-GFP viability of 38.6%.
Compound `Cc1cn[nH]c1` [Fomepizole] had an HCT116-GFP viability of 41.6%.
Next, `CCCCN(CCCC)CCCOC(=O)c1ccc(N)cc1` [Butacaine]: 71.2%; `Cc1ccc(C(=O)c2ccc(CC(=O)O)n2C)cc1` [Tolmetin sodium salt dihydrate]: 57.3%; `COC(=O)Nc1nc2cc(C(=O)c3cccs3)ccc2[nH]1` [Nocodazole]: 4.89%.
Regarding `CC[N+](C)(CC)CCOC(=O)C1c2ccccc2Oc2ccccc21` [Methantheline bromide], the HCT116-GFP viability was found to be 34%.
`CC(=O)OCC(=O)[C@@]1(O)CC[C@H]2[C@@H]3CCC4=CC(=O)CC[C@]4(C)[C@@]3(F)[C@@H](O)C[C@@]21C` [Fludrocortisone acetate] gave an HCT116-GFP viability of 79.9%.
As to `C=CC(N)CCC(=O)O` (configuration not stated) [Vigabatrin hydrochloride], the HCT116-GFP viability was determined as 52.1%.
With `NS(=O)(=O)c1cc(C2(O)NC(=O)c3ccccc32)ccc1Cl` (configuration not stated) [Chlorthalidone], the HCT116-GFP viability came out at 29.9%.
As for `CCN[C@H]1CN(CCCOC)S(=O)(=O)c2sc(S(N)(=O)=O)cc21` [Brinzolamide], the HCT116-GFP viability is 48.1%.
In turn, `CC(=O)OCC(=O)[C@@]1(O)CC[C@H]2[C@@H]3CCC4=CC(=O)CC[C@]4(C)[C@H]3[C@@H](O)C[C@@]21C` [Cortisol acetate] gave an HCT116-GFP viability of 87%.
The compound `Cc1ncc(C[n+]2csc(CCO)c2C)c(N)n1` [Thiamine hydrochloride] displayed an HCT116-GFP viability of 63.8%.
In turn, `CC(C)c1c(C(=O)Nc2ccccc2)c(-c2ccccc2)c(-c2ccc(F)cc2)n1CC[C@@H](O)C[C@@H](O)CC(=O)O` [Atorvastatin] showed an HCT116-GFP viability of 20.3%.
`CCCc1cc(C(N)=S)ccn1` [Prothionamide] displayed an HCT116-GFP viability of 37.7%.
As to `CC(=O)S[C@@H]1CC2=CC(=O)CC[C@]2(C)[C@H]2CC[C@@]3(C)[C@@H](CC[C@@]34CCC(=O)O4)[C@H]12` [Spironolactone], the HCT116-GFP viability is 52.8%.
The same measure for `CC(Cc1cccc(C(F)(F)F)c1)NCCOC(=O)c1ccccc1` (configuration not stated) [Benfluorex]: 72.4%; for `NNCCc1ccccc1` [Phenelzine sulfate]: 31.9%; for `C[C@H]1O[C@H](O[C@H]2[C@H](O)[C@@H](O)[C@@H](O[C@H]3[C@H](O)[C@@H](O)C(O)O[C@@H]3CO)O[C@@H]2CO)[C@H](O)[C@@H](O)[C@@H]1N[C@H]1C=C(CO)[C@@H](O)[C@H](O)[C@H]1O` (some centres not stated) [Acarbose]: 53.1%.
In turn, `CN1CCC(=C2c3ccccc3C=Cc3ccccc32)CC1` [Cyproheptadine hydrochloride] yielded an HCT116-GFP viability of 53.7%.
Next, `N=C(N)NC(=N)NCCc1ccccc1` [Phenformin hydrochloride]: 46.4%; `CC(C)(C)NC[C@@H](O)COc1cccc2c1CCCC2=O` [(+) -Levobunolol hydrochloride]: 76.5%; `CO[C@H]1/C=C/O[C@@]2(C)Oc3c(C)c(O)c4c(O)c(c(/C=N/N5CCN(C6CCCC6)CC5)c(O)c4c3C2=O)NC(=O)/C(C)=C\C=C\[C@H](C)[C@H](O)[C@@H](C)[C@@H](O)[C@@H](C)[C@H](OC(C)=O)[C@@H]1C` [Rifapentine]: 41.1%.
Consider `O=C(O)Cc1ccc(-c2ccccc2)cc1` [Felbinac], for which the HCT116-GFP viability worked out at 73.5%.
